This is an account of results in article PMC8120823.

Tags and fusion partners may be left off the protein sequences shown.

The target of this series is T1, 6His-SCO4804 (Streptomyces coelicolor) (UniProt Q9KY60).
T1 sequence (looked up): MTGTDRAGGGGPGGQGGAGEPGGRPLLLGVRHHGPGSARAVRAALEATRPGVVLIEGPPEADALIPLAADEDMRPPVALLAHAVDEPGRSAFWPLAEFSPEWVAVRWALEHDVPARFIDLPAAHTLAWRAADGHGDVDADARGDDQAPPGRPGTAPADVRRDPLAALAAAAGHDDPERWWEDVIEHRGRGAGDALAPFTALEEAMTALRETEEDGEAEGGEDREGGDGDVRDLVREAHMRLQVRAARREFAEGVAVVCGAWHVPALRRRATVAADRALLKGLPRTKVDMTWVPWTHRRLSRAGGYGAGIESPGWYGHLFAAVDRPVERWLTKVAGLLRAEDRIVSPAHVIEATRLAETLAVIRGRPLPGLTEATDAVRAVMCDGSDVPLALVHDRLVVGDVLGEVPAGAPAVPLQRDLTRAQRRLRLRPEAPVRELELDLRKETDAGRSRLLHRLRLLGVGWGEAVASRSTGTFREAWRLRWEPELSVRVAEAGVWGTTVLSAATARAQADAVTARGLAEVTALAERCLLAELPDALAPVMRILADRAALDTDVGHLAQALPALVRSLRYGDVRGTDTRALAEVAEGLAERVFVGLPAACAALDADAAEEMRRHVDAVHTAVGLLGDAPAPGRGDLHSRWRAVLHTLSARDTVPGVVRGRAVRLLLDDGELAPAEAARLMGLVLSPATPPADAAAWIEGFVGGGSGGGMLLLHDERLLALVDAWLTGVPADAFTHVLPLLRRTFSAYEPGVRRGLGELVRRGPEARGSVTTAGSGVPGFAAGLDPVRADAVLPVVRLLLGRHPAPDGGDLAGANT
The series can be described thus: EMSA. The settings on record: no competitor, bound at 1 uM protein, non-specific; PBS, 5 mg/ml BSA, 5% glycerol, optional 2 ng/ul poly(dI-dC), 30 ng DNA, protein up to 2 uM, 30 min at 25 C; 5% PAGE in 0.25x TBE at 4 C; pH not stated; recombinant protein; residues 1-815; protein details: 6His (pET28a, NdeI/EcoRI, N-terminal His/thrombin); label: none (ethidium bromide stain); probe letters rebuilt from the primers and the …. Background: Mobility shift assays separate free from complexed probe on a gel.
For “GCGGATCCGATCTTCGCGGGAGTGGTGTTCGCCCTGTTCGGGGCCGGTCTGCTGGTGTGGACCACGACGCGGGTGCGGCACGGCCGGCCCGTCGCGCTCGGTGTGAGCCCCGTCGCATCGGCGACCGTCGCGAGCGTCGCCGCCGTGGTCGCGCTGGGCCTCGGGGCCTGGTGCCTGACCCAGGTGTGAGGAGCGGTTGCGCACCCCGGCCGGGGCGCCGCCCGAGTAACCGGGGGATCGCACTCCGGATACCCGTGTCGGAGCGGGTCAGCACTCCGGGCGGCAGGAACGGGGTTCGTCGGGTTACCGTTCGAGTGGCCGTTGCGGGCTTTTCCCGTTTGACACGGGGGCGGGAGGTACCGTCACACTCCGCAGCGTCACGATCGAAACACAGAACGACCCGACCCCGGGACCACGGCCTGGGGAGGCCCAGCGTCGACCGGAGAGAAGAGCGCATATGCG (double strand) [topA promoter fragment]”, the binding result is listed as “binds”.
Turning to “GGCATATGCGATACCCCCGTCGGCTCACACCTCGTATCAGCAACACCCGTACGCGTACGTGAACTTACAAGGCGCGGTCGCCCGGCGAAAGACGGCTCCGACGCGCGGGGTGATCGTGTGGAGAACGGGGATTCAGCGTCTGCGCACCGCCTTCCAGGCGTCGGTCACCGCGTAGGAGAAGGTCAGCCGCCAGGCGTCCAGTTTGTTCCGCACCGTTGAGACCACTCTCCAGCACTTCAGCCACGTCGGCAGGCGTCGGAACGGTACGAAGGTGAGGGTGTCGCCGATGGCGTTCACCGCGATGCTCCTGCGGCCCGGTCCCTCTGCCCGCAGTGCGGCGTATAGTTCCGGCGTCAATGCGCGGTTGAGGCGGGCCGCGGTGCCTGCCGCGGTGAAGGCGAATCCTCGGATCCGG (double strand)”, the binding result is “binds”.
With “GTAATGCCGGCGTAGGGAGTAGGTCTCATGACCATCAAGGACGCACGCACGCCTGCCTCCACGCAGAACACCGCCCAGGCGGACACCGCGGAGAACACGGACACCGCGGAGGACACCGAGGCCGGGAAGTCCATCGGCTGGCACAAGGCGTACGTCGAGGGCTCGCGCCCCGATCTGCGGGTGCCGGTCCGTCAGGTGCACCTCACCAACGGGCAGTCGGTCACGCTCTACGACACCTCGGGCCCGTACACCGATCCGCTCGTCGACACCGATGTCCGCAGGGGCCTCGCACCGCTGCGGGAGAACTGGATCATCGCCCGCGGAGACACCGAGGAGTACGCGGGCCGCCCCGTCCGGCCCGAGGACGACGGAATCAAGCACACCTCGCCGCGCGGCGGCCTGCGCAACCTCGACGCCGTCTTCCCCGGCCGCCCGCGCCAGCCTCGCCGGGGCCGGGACGGCAACGCGGTCACGCAGCTCGCCTACGCGCGACGGGGCGAGATCACCCCGGAGATGGAGTACGTGGCCGTCCGGGAGAACGTCTCCCCGGAGGTGGTCCGCGAGGAGATCGCCGCGGGACGTGCCGTGCTGCCCGCCAACATCAACCACCCCGAGATCGAGCCGATGATCATCGGCAAGCGGTTCCTGGTGAAG (double strand) [negative control 2, sco3928 fragment]”, the binding result is “binds”.
